According to patent US9802929B2, “Benzo five-membered nitrogen heterocyclic piperidine or piperazine derivatives and preparation methods and pharmaceutical compositions thereof” (Shenyang Haiwang Biotechnology Co., Ltd., priority 2012, dated 2017):
Some of these results come from one statement about several compounds together.

Tests used:
[1] = tested on: In Vitro Vascular Smooth Muscle of Rabbits; assay: Relaxant effect on in vitro rabbit vascular smooth muscle contraction induced by adrenaline (AD); conditions: AD 10^−5 mol/L
Description: Krebs-Henseleit (K—H) physiological solution: NaCl 6.92 (concentration units), KCl 0.35, MgSO4 0.29, KH2PO4 0.16, CaCl2 0.28, NaHCO3 2.1, glucose 2.0 (g/L), pH 7.2.
Preparation of compound II-1 to II-87 solutions: Weigh a certain quality compound samples and dilute to concentrations (10^−10˜10^−3 mol/L) with distilled water, standby.
Cut the chest open quickly after stunning, strip out the descending aorta, then after removing the surrounding connective tissue and adipose tissue (if performed serotonin receptor antagonist experiments, endothelial cells should be removed using a smooth stainless steel bars), cut the vessels into 3-5 mm vascular ring, then pass the steel hook through the blood vessel ring, with one end is fixed to the vent hook and the other end connected to the tension transducer, then place the specimens into bath tube containing 20 mL of nutrient solution, and record tension change by tension transducer. Maintain tube temperature at 37±0.5° C., and pass bubbles (95% O2+5% CO2) into the solution as a speed of 1-2 bubbles/minute. Place an initial load of 1.5 g on the rings, and change nutrient every 20 minutes, then balance for 2 hours and start test after baseline readings are stabilized.
After tension readings are stabilized, record a certain length of tension curve, and add spasmogens agent AD (10^−5 mol/L) to induce contraction; if a maximum contract is achieved, wash the specimens thoroughly, and change K—H solution every 20 minutes, and then balance for 60 minutes; after baseline readings are stabilized, induce contract with spasmogens agent again. When the maximum contract in the later induction is consistent with the former induction, add compound II-1 to II-34 solutions (1×10^−10 to 1×10^−3 mol/L), II-35 to II-87 solutions (1×10^−8-1×10^−3 mol/L), and record the curves. Draw a dose-response curve using maximum relaxation response as 100%, relaxation percentage as ordinate and negative logarithms of the each concentration as abscissa.

[2] = tested on: In-Vitro Vascular Smooth Muscle of Rabbits; assay: Relaxant effect on in vitro rabbit vascular smooth muscle contraction induced by hyperkalemia solution

## c1ccc2nc(N3CCN(CCCCn4nnc5ccccc54)CC3)cnc2c1 [II-80, 1-(4-(4-(2-quinoxalinyl)piperazin-1-yl)butyl)-1H-benzotriazole]
[1]
  relaxant effect against AD contraction (in words): Vascular Smooth Muscle Relaxant Effect
[2]
  relaxant effect against hyperkalemia solution contraction (in words): Relaxant Effect

## COc1ccccc1N1CCN(CCCCn2cnc3ccccc32)CC1 [II-38, 1-(4-(4-(2-methoxyphenyl)piperazin-1-yl)butyl)-1H-benzimidazole]
[1]
  relaxant effect against AD contraction (in words): Vascular Smooth Muscle Relaxant Effect
[2]
  relaxant effect against hyperkalemia solution contraction (in words): Relaxant Effect

## FC(F)(F)c1cccc(N2CCN(CCCCn3cnc4ccc(Cl)cc43)CC2)c1 [II-59, 6-chloro-1-(4-(4-(3-trifluoromethylphenyl)piperazin-1-yl)butyl)-1H-benzimidazole]
[1]
  relaxant effect against AD contraction (in words): Vascular Smooth Muscle Relaxant Effect
[2]
  relaxant effect against hyperkalemia solution contraction (in words): Relaxant Effect

## FC(F)(F)c1cccc(N2CCN(CCCCCn3c(Cl)nc4ccccc43)CC2)c1 [II-62, 2-chloro-1-(5-(4-(3-trifluoromethylphenyl)piperazin-1-yl)pentyl)-1H-benzimidazole]
[1]
  relaxant effect against AD contraction (in words): Vascular Smooth Muscle Relaxant Effect
[2]
  relaxant effect against hyperkalemia solution contraction (in words): Relaxant Effect

## Fc1cccc(N2CCN(CCCn3cnc4ccccc43)CC2)c1 [II-42, 1-(3-(4-(3-fluorophenyl)piperazin-1-yl)propyl)-1H-benzimidazole]
[1]
  relaxant effect against AD contraction (in words): Vascular Smooth Muscle Relaxant Effect
[2]
  relaxant effect against hyperkalemia solution contraction (in words): Relaxant Effect

## Clc1cccc(N2CCN(CCCn3nnc4ccccc43)CC2)c1Cl [II-72, 1-(3-(4-(2,3-dichlorophenyl)piperazin-1-yl)propyl)-1H-benzotriazole]
[1]
  relaxant effect against AD contraction (in words): Vascular Smooth Muscle Relaxant Effect
[2]
  relaxant effect against hyperkalemia solution contraction (in words): Relaxant Effect

## c1coc(N2CCN(CCCCn3cnc4ccccc43)CC2)c1 [II-46, 1-(4-(4-(2-furyl)piperazin-1-yl)butyl)-1H-benzimidazole]
[1]
  relaxant effect against AD contraction (in words): Vascular Smooth Muscle Relaxant Effect
[2]
  relaxant effect against hyperkalemia solution contraction (in words): Relaxant Effect

## c1ccc2c(c1)nnn2CCCCN1CCC(C2CCCCC2)CC1 [II-32, N-(4-(1H-benzotriazole-1-yl)butyl)-4-cyclohexyl piperidine]
[1]
  relaxant effect against AD contraction (in words): Vascular Smooth Muscle Relaxant Effect
[2]
  relaxant effect against hyperkalemia solution contraction (in words): Relaxant Effect

## Clc1cccc(C2CCN(CCCCn3nnc4ccccc43)CC2)c1 [II-2, N-(4-(1H-benzotriazole-1-yl)butyl)-4-(3-chlorophenyl)piperidine]
[1]
  relaxant effect against AD contraction (in words): Vascular Smooth Muscle Relaxant Effect
[2]
  relaxant effect against hyperkalemia solution contraction (in words): Relaxant Effect

## Fc1ccc2c(N3CCN(CCCCn4cnc5ccccc54)CC3)coc2c1 [II-55, 1-(4-(4-(3-(6-fluorobenzofuranyl))piperazin-1-yl)butyl)-1H-benzimidazole]
[1]
  relaxant effect against AD contraction (in words): Vascular Smooth Muscle Relaxant Effect
[2]
  relaxant effect against hyperkalemia solution contraction (in words): Relaxant Effect

## c1ccc2c(c1)ncn2CCCCN1CCN(c2n[nH]c3ccccc23)CC1 [II-54, 1-(4-(4-(3-benzopyrazolyl)piperazin-1-yl)butyl)-1H-benzimidazole]
[1]
  relaxant effect against AD contraction (in words): Vascular Smooth Muscle Relaxant Effect
[2]
  relaxant effect against hyperkalemia solution contraction (in words): Relaxant Effect

## Fc1ccc2nnn(CCCCN3CCN(c4cccc(C(F)(F)F)c4)CC3)c2c1 [II-66, 6-fluoro-1-(4-(4-(3-trifluoromethylphenyl)piperazin-1-yl)butyl)-1H-benzotriazole]
[1]
  relaxant effect against AD contraction (in words): Vascular Smooth Muscle Relaxant Effect
[2]
  relaxant effect against hyperkalemia solution contraction (in words): Relaxant Effect

## Cc1ccc(N2CCN(CCCCn3cnc4ccccc43)CC2)cc1 [II-45, 1-(4-(4-(4-methylphenyl)piperazin-1-yl)butyl)-1H-benzimidazole]
[1]
  relaxant effect against AD contraction (in words): Vascular Smooth Muscle Relaxant Effect
[2]
  relaxant effect against hyperkalemia solution contraction (in words): Relaxant Effect

## c1ccc2nc(C3CCN(CCCCn4nnc5ccccc54)CC3)cnc2c1 [II-34, N-(4-(1H-benzotriazole-1-yl)butyl)-4-(2-quinoxalinyl)piperidine]
[1]
  relaxant effect against AD contraction (in words): Vascular Smooth Muscle Relaxant Effect
[2]
  relaxant effect against hyperkalemia solution contraction (in words): Relaxant Effect

## Fc1ccc2c(N3CCN(CCCCn4nnc5ccccc54)CC3)noc2c1 [II-70, 6-fluoro-3-(4-(4-(1H-benzotriazol-1-yl)butyl)piperazin-1-yl)benzisoxazole]
[1]
  relaxant effect against AD contraction (in words): Vascular Smooth Muscle Relaxant Effect
[2]
  relaxant effect against hyperkalemia solution contraction (in words): Relaxant Effect

## Cc1cccc(N2CCN(CCCn3nnc4ccccc43)CC2)c1 [II-73, 1-(3-(4-(3-methylphenyl)piperazin-1-yl)propyl)-1H-benzotriazole]
[1]
  relaxant effect against AD contraction (in words): Vascular Smooth Muscle Relaxant Effect
[2]
  relaxant effect against hyperkalemia solution contraction (in words): Relaxant Effect

## FC(F)(F)c1cccc(C2CCN(CCCOn3cnc4ccccc43)CC2)c1 [II-11]
[1]
  relaxant effect against AD contraction (in words): Vascular Smooth Muscle Relaxant Effect
[2]
  relaxant effect against hyperkalemia solution contraction (in words): Relaxant Effect

## COc1ccc2nnn(CCCCN3CCC(c4cccc(C(F)(F)F)c4)CC3)c2c1 [II-8, N-(4-(6-methoxy-1H-benzotriazole-1-yl)butyl)-4-(3-trifluoromethylphenyl)piperidine]
[1]
  relaxant effect against AD contraction (in words): Vascular Smooth Muscle Relaxant Effect
[2]
  relaxant effect against hyperkalemia solution contraction (in words): Relaxant Effect

## c1ccc2c(c1)nnn2OCCN1CCC(c2noc3ccccc23)CC1 [II-25, N-(2-(1-benzotriazole)ethoxy)-4-(3-fluoro-benzisoxazole)piperidine]
[1]
  relaxant effect against AD contraction (in words): Vascular Smooth Muscle Relaxant Effect
[2]
  relaxant effect against hyperkalemia solution contraction (in words): Relaxant Effect

## Fc1ccc2c(N3CCN(CCCn4nnc5ccccc54)CC3)noc2c1 [II-71, 6-fluoro-3-(4-(3-(1H-benzotriazol-1-yl)propyl)piperazin-1-yl)benzisoxazole]
[1]
  relaxant effect against AD contraction (in words): Vascular Smooth Muscle Relaxant Effect
[2]
  relaxant effect against hyperkalemia solution contraction (in words): Relaxant Effect

## Fc1ccc2c(N3CCN(CCCOn4cnc5ccccc54)CC3)noc2c1 [II-56, 1-(4-(4-(3-(6-fluorobenzisoxazolyl))piperazin-1-yl)propoxy)-1H-benzimidazole]
[1]
  relaxant effect against AD contraction (in words): Vascular Smooth Muscle Relaxant Effect
[2]
  relaxant effect against hyperkalemia solution contraction (in words): Relaxant Effect

## c1ccc2c(C3CCN(CCCCn4nnc5ccccc54)CC3)cccc2c1 [II-33, N-(4-(1H-benzotriazole-1-yl)butyl)-4-(1-naphthyl)piperidine]
[1]
  relaxant effect against AD contraction (in words): Vascular Smooth Muscle Relaxant Effect
[2]
  relaxant effect against hyperkalemia solution contraction (in words): Relaxant Effect

## Clc1cccc(C2CCN(CCCCn3cnc4ccccc43)CC2)c1 [Compound II-1, N-(4-(1H-benzimidazol-1-yl)butyl)-4-(3-chlorophenyl)piperidine]
[1]
  relaxant effect against AD contraction (in words): Vascular Smooth Muscle Relaxant Effect
[2]
  relaxant effect against hyperkalemia solution contraction (in words): Relaxant Effect

## COC(=O)c1ccc2nnn(CCCCN3CCN(c4cccc(C(F)(F)F)c4)CC3)c2c1 [II-85, 6-methoxycarbonyl-1-(4-(4-(3-trifluoromethylphenyl)piperazin-1-yl)butyl)-1H-benzotriazole]
[1]
  relaxant effect against AD contraction (in words): Vascular Smooth Muscle Relaxant Effect
[2]
  relaxant effect against hyperkalemia solution contraction (in words): Relaxant Effect

## c1ccc2c(c1)nnn2CCCCN1CCN(C2CCCCC2)CC1 [II-78, 1-(4-(4-cyclohexyl-piperazin-1-yl)butyl)-1H-benzotriazole]
[1]
  relaxant effect against AD contraction (in words): Vascular Smooth Muscle Relaxant Effect
[2]
  relaxant effect against hyperkalemia solution contraction (in words): Relaxant Effect

## Fc1ccc2c(C3CCN(CCCn4nnc5ccc(F)cc54)CC3)noc2c1 [II-14, N-(3-(6-fluoro-1H-benzotriazole-1-yl)propyl)-4-(3-(6-fluorobenzoisoxazole))piperidine]
[1]
  relaxant effect against AD contraction (in words): Vascular Smooth Muscle Relaxant Effect
[2]
  relaxant effect against hyperkalemia solution contraction (in words): Relaxant Effect

## FC(F)(F)c1cccc(C2CCN(CCCCn3nnc4ccccc43)CC2)c1 [II-4, N-(4-(1H-benzotriazole-1-yl)butyl)-4-(3-trifluoromethylphenyl)piperidine]
[1]
  relaxant effect against AD contraction (in words): Vascular Smooth Muscle Relaxant Effect
[2]
  relaxant effect against hyperkalemia solution contraction (in words): Relaxant Effect

## COc1ccc2c(C3CCN(CCCCn4nnc5ccc(C#N)cc54)CC3)noc2c1 [II-23, N-(4-(6-cyano-benzotriazole-yl)butyl)-4-(3-(6-methoxy-benzene and isoxazole)) piperidine]
[1]
  relaxant effect against AD contraction (in words): Vascular Smooth Muscle Relaxant Effect
[2]
  relaxant effect against hyperkalemia solution contraction (in words): Relaxant Effect
